Values of other authors, collected in patent US12383534B2, “Methods for treating cancer” (REGENTS OF THE UNIVERSITY OF MINNESOTA, priority 2021, dated 2025).
At least one compound was matched to its structure with a doubt left.

Test system: CDS cell lines
Details: screens of FDA-approved anticancer molecules; cited from earlier work

Cc1ccc(C(=O)Nc2ccc(CN3CCN(C)CC3)c(C(F)(F)F)c2)cc1C#Cc1cnc2cccnn12 [ponatinib]
effectiveness in vitro on CDS cell lines: some degree of effectiveness in vitro
